# Reference: article PMC7862700
# This is a selection; strong and weak results do not stand in their true shares. For some assays here: At the low end of the ranking the order means little. The list shows a part of the results. For some assays here: The exact form of the protein is not confirmed.
# Tests used:
# [1] = molecular target: T1, ETS1 (UniProt P14921); assay: DAPPL (digital affinity profiling via proximity ligation, sequencing); settings: 10 mM Tris-HCl pH 7.5, 50 mM NaCl, 1 mM DTT, 4% glycerol, room temperature, 30 min; GST-TFs on glutathione beads, 16-mer random dsDNA library, 0.1% …; high values mean tight binding; double strand, one strand shown; scale: fold enrichment (6-mer frequency, TF over GST control)
# T1 sequence: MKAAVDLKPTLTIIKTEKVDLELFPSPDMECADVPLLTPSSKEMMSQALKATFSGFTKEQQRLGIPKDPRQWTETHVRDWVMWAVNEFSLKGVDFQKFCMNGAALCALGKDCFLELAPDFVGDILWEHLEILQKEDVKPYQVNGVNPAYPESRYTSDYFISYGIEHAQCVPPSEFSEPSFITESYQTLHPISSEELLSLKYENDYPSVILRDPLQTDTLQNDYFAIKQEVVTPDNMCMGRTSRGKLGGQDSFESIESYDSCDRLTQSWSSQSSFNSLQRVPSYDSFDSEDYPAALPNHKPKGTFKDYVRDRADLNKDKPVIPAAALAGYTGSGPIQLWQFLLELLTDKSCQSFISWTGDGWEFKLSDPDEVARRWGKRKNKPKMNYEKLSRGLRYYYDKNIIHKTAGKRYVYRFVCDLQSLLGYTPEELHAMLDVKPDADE
# [2] = molecular target: T2, GABPA (UniProt Q06546); assay: as above; settings: 10 mM Tris-HCl pH 7.5, 50 mM NaCl, 1 mM DTT, 4% glycerol, room temperature, 30 min; GST-TFs on glutathione beads, 16-mer random dsDNA library, 0.1% …; high values mean tight binding; double strand, one strand shown; scale: fold enrichment (6-mer frequency, TF over GST control)
# T2 sequence: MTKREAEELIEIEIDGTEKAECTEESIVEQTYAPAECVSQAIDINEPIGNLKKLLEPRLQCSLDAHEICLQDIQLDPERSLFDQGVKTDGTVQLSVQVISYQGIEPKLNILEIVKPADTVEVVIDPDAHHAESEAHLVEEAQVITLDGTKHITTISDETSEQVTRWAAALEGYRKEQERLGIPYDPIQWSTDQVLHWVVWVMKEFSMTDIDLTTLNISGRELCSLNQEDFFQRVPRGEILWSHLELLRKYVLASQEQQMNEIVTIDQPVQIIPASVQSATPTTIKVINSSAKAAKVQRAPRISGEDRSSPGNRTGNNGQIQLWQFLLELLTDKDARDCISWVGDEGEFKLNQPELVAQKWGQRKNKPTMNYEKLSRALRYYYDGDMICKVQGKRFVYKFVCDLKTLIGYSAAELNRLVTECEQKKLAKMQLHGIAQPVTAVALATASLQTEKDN
Sequence,binding signal [1],binding signal [2]
TCCATA,1.38,–
TATTGA,1.13,–
AAGCTA,1.2,–
TATGCC,1.15,–
GATATT,1.07,–
CTGAAC,1.34,–
AAACAC,1.31,–
ATATTG,1.31,–
CTTACT,1.27,–
ATATCA,1.2,–
ACATGT,1.06,–
AATCAG,1.17,–
CTGTAG,0.997,–
ACCTCT,1.43,–
ACGGCT,1.13,–
GCGAAT,1.01,–
ATGCGC,1.15,–
GACTAC,1.07,–
CACCTC,1.15,–
ATTGGT,1.29,–
ATGCTG,1.12,–
TACTGT,1.11,–
TACAGG,1.08,–
TTCGAT,1.28,–

# Reprinted at random: four entries already listed, in no set order.
Sequence,binding signal [1],binding signal [2]
ATGCTG,1.12,–
CTGAAC,1.34,–
CTGTAG,0.997,–
AAACAC,1.31,–

# As a short view, some entries already given:
Sequence,binding signal [1],binding signal [2]
ATATTG,1.31,–
CTTACT,1.27,–

# Continued:

Sequence,binding signal [1],binding signal [2]
CTATTT,1.84,–
TTTGTA,1.61,–
TCCTAA,1.49,–
AGGACC,1.06,–
ATTTTC,1.45,–
CTCCAT,1.3,–
CCGGTT,1.87,–
CACTAC,1.3,–
TCGCCC,1.2,–
GTACCC,1.13,–
AACCCT,1.36,–
GTAATG,1.09,–
CCAAAT,1.05,–
TTGCAG,1.17,–
AACGAT,1.29,–
TCTTGG,1.38,–
CGCCGC,1.12,–
ACACAA,1.26,–
CGTAAA,1.01,–
AATTGA,1.13,–
GGATAT,1.51,–
GCACTC,1.2,–
ACCCGA,1.06,–
CCGGTG,0.936,–

Sequence,binding signal [1],binding signal [2]
AATTTG,1.33,–
TCTACA,1.25,–
CAACCC,1.26,–
CCCTTA,1.34,–
ATAAGC,0.987,–
CAACTG,1.2,–
AAATGC,1.28,–
TTCCTA,1.65,–
GCTCTA,1.19,–
TTCTAT,1.4,–
GCTATC,1.06,–
CTCCAC,1.48,–
TTACTT,1.51,–
TTACAG,1.21,–
TAGTAT,1.42,–
CACGAC,1.33,–
AGTACA,1.08,–
TAATCC,1.21,–
CGTCAC,1.27,–
CCGTAT,1.2,–
ATGATG,1.39,–
CATTGT,1.14,–
GTCTCG,1.49,–
TTGTTC,1.43,–

Sequence,binding signal [1],binding signal [2]
CCTAGC,1.24,–
TGTACC,1.3,–
TTTGCC,1.45,–
AATCCT,1.29,–
TGTCTA,1.11,–
ATTCCT,1.37,–
TATGGG,1.18,–
TAGGAT,0.982,0.965
TCATAC,1.05,1.09
GAATTA,1.04,0.968
CGAATT,1.23,1.27
TATACA,1.31,1.42
CAATTA,1.17,1.1
CACGTA,1.1,1.23
TTATAT,1.33,1.39
GGTTCT,0.979,1.02
TAGCGA,0.995,1.18
TCATGT,1.14,1.11
TGTTGG,0.858,0.846
ATCCGT,0.923,0.908
ACCCAC,1.23,1.35
TGAATC,1.06,1.05
CCAAAC,1.18,1.15
CATGTT,1.03,0.998

Sequence,binding signal [1],binding signal [2]
GAAAAT,1.15,1.16
AAGATC,1.04,1.08
CCTTAA,1.41,1.27
TCTGGC,1.23,1.29
CTGATG,1.69,1.7
TAGACA,0.935,1.01
CAATAC,1.26,1.23
GGTTGT,0.938,0.783
TCGAGC,1.12,0.919
TAGCAT,1.06,1.05
CATTAA,1.06,1.12
CCAATA,1.23,1.25
TCATAA,1.04,1.03
TGCACC,1.17,1.25
AGTGTT,1.05,1.14
ATAACC,1.14,1.22
TGTAAG,1.04,1.03
GCCCGG,0.932,0.933
TGACGG,0.945,0.93
CGCTAT,1.14,1.07
ATAACA,1.33,1.22
GTGCAT,1.04,1.1
TATGAT,1.23,1.22
CATGTA,1.2,0.978
